# Assay results: PubChem BioAssay AID651768 (National Center for Advancing Translational Sciences (NCATS), 2012)
# By UniProt entry, the sequences of proteins in these tests, tags left out.
# UniProt Q14191, whole entry, looked up: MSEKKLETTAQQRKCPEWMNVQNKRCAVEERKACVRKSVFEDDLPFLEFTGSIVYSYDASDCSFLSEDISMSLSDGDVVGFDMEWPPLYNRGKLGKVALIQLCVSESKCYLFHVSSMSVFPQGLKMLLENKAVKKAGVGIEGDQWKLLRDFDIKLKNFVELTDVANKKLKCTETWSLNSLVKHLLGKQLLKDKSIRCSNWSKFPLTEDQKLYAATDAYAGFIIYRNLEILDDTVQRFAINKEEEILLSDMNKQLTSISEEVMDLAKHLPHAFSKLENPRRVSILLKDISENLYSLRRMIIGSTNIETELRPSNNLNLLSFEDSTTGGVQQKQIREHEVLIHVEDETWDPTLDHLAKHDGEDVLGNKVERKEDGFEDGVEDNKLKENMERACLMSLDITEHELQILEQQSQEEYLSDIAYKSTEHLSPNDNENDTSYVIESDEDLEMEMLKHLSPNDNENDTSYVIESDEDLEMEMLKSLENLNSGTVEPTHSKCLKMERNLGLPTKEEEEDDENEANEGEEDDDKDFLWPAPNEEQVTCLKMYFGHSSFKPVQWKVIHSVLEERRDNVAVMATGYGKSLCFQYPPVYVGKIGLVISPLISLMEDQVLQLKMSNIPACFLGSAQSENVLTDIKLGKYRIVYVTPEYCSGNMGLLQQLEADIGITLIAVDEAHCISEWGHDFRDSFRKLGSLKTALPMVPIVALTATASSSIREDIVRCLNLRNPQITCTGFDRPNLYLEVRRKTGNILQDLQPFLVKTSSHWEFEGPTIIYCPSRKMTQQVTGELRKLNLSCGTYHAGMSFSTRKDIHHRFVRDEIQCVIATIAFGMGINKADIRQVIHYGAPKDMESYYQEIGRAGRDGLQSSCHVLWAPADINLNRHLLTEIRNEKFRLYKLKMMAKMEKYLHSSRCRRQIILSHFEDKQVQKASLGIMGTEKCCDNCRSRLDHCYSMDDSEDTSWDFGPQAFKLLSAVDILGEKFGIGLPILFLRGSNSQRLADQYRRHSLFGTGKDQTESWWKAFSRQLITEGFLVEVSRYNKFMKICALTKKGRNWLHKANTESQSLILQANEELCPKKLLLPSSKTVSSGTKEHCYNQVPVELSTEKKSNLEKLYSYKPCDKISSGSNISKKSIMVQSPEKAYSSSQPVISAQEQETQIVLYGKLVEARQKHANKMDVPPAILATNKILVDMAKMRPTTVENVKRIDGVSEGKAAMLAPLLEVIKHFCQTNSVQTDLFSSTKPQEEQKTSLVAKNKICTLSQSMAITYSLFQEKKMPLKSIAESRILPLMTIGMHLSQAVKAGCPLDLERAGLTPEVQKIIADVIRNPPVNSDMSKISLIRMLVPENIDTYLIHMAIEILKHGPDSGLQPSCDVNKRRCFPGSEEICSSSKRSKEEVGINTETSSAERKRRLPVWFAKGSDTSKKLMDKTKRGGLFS
# Screen size: about 360,000 compounds; about 1,700 (0.47%) were called active. The inconclusive results got no clear call from the source; some entries with a clear call stand among them for comparison. Calls follow the shape of the dose curve; as a rule, active = well fitted inhibition curve with a large enough effect; inconclusive = small, poorly fitted or top-dose-only effect; inactive = no such curve, though single readings can be large or run the other way. Where the call is inconclusive, the potency comes from a doubtful curve fit.
# Target: Bifunctional 3'-5' exonuclease/ATP-dependent helicase WRN (Homo sapiens) (UniProt Q14191)
# Test: qHTS for Inhibitors of WRN Helicase; also: nearly all actives have a fitted effect of over 55% in size
# Settings: WRN helicase unwinding, fluorescent forked duplex, kinetic; activity change, negative = inhibition: at 114 µM (top of the series) unless noted
# Description: Inhibition of DNA repair is proposed as a strategy for combating cancer. Synthetic lethality is an approach that exploits preexisting DNA repair deficiencies in certain tumors to develop inhibitors of DNA repair pathways that compensate for the tumor-associated DNA repair deficiency. Because helicases play critical roles in the DNA damage response and in DNA repair, particularly in actively dividing and replicating cells, characterization of synthetic lethal relationships of DNA helicases may be of value in developing improved anticancer treatment strategies; moreover, small molecules that specifically target a given DNA helicase may be useful for understanding its role in cellular nucleic acid metabolism. The goal of this project is to identify small molecule, non-covalent chemical inhibitors of the Werner syndrome (WS) helicase (WRN), which plays an important role in cell proliferation, the replication stress response, and DNA repair. […] The WRN gene product that is defective in the chromosomal instability disorder has DNA helicase and exonuclease activities and interacts with a number of nuclear proteins to maintain genomic stability. We will employ an optimized high-throughput screening assay that utilizes a fluorescence intensity modulation scheme with a fluorophore and quencher positioned near one another within a duplex deoxyoligonucleotide that contains a single forked structure. After a high-throughput screen of the ~350,000-member Molecular Libraries Small Molecule Repository (MLSMR) collection, followed by data analysis and hit selection, a panel of confirmatory, as well as secondary and ternary, assays will be employed to identify high-confidence WRN inhibitors. Structure-activity relationships will be investigated for the top candidate inhibitor series through medchem expansion. These are the results of the primary screening campaign against the MLSMR. NIH Chemical Genomics Center [NCGC] NIH Molecular Libraries Probe Centers Network [MLPCN] MLPCN Grant: MH096530 Assay Submitter (PI): Robert Brosh, National Institute of Aging
# Three muL of reagents (buffer in columns 3 and 4 as negative controls; WRN at 20 nM final concentration in columns 1 and 2 as positive controls; columns 5-48 as test reactions) will be dispensed into a 1536-well Greiner black plate via solenoid-valve based nanoliter dispensers. Compounds (23 nL each in columns 5-48) and control (23 nL each in column 2 as dose-response) will be transferred via a Kalypsys pintool equipped with a 1536-pin array. Plates will be incubated for 15 min at room temperature, and then 1 µL of substrate (100 nM forked duplex oligonucleotide and 2 mM ATP final concentrations) will be added to start reaction, and plate will be transferred into a ViewLux high-throughput CCD imager where reaction progress is measured in kinetic mode using standard red-fluorescence optics (excitation filter 525 nm, emission filter 598 nm).
# % is scaled to controls: 0 for no effect and ±100 for the full control effect; potency is read from the fitted curve at half-maximal effect.
Compound,Potency,"activity change, negative = inhibition"
CC(=O)N1N=C(c2ccccc2OC(=O)/C=C/c2ccccc2)CC1c1ccccc1 (stereo not given),"inconclusive: 3.55 µM [inhibitor, full curve, poor fit]",–
COc1ccc(/C=C(\C#N)c2nc3ccc(C)cc3[nH]2)cc1Oc1ccc(C(F)(F)F)cc1[N+](=O)[O-],–,inactive: -0.254%
O=C(CSc1nnc(NC(=O)C2CC2)s1)NCc1ccccc1,"inconclusive: 10 µM [inhibitor, partial curve]",–
CCCNC(=O)c1ccc2c(=O)c(O)c(-c3ccsc3)[nH]c2c1,–,inactive: -20.6%
Cc1sc(NC(=O)C2=COCCO2)nc1-c1ccc(Br)cc1,"inconclusive: 79.4 µM [inhibitor, single point]",–
COc1cc(OC)cc(C(=O)Nc2nc3ccc(S(C)(=O)=O)cc3s2)c1,"inconclusive: 28.2 µM [inhibitor, single point]",–
CCOC(=O)Nc1sc2c(c1C#N)CCC(C)C2 (stereo not given),–,inactive: -4.33%
O=C1CSC(c2ccccc2)N1c1ccc([N+](=O)[O-])cc1 (stereo not given),"inconclusive: 79.4 µM [inhibitor, single point]",–
O=C(CSc1nnc(C2CC2)n1-c1ccccc1)NCCc1ccc(F)cc1,–,inconclusive: -36.3% [inhibitor] [at 57.1 µM]
N#CC12COC3(CCCCC3C1(C#N)C#N)OC2=N (stereo not given),"inconclusive: 31.6 µM [inhibitor, partial curve, poor fit]",–
CC(=O)c1cccc(NC(=S)N2CCN(S(=O)(=O)c3ccccc3)CC2)c1,"inconclusive: 89.1 µM [inhibitor, single point]",–
O=C(NCCc1ccccc1)c1ccc2nc(-c3ccco3)c(-c3ccco3)nc2c1,"inconclusive: 44.7 µM [inhibitor, partial curve]",–
O=C(N/N=C/c1cc(O)ccc1Br)c1cccnc1,–,inactive: -12.5%
CCOc1ccc(-n2c(SCc3ccc([N+](=O)[O-])cc3)nnc2-c2ccc(OC)cc2)cc1,"inconclusive: 39.8 µM [inhibitor, single point]",–
Cn1cc(C(=O)NCc2ccc(F)cc2)c(=O)c2cc(S(=O)(=O)N3CCCCC3)ccc21,"inconclusive: 20 µM [inhibitor, single point]",–
Oc1ccc2ccccc2c1C=Nc1ccc(Cl)cn1,"inconclusive: 25.1 µM [inhibitor, single point]",–
O=C(NCCOc1ccc(F)cc1)C1CCC(=O)N(CCN2CCOCC2)C1 (stereo not given),"inconclusive: 89.1 µM [inhibitor, single point]",–
Cc1cc(C)c(S(=O)(=O)NCc2ccc3c(c2)cc(C)n3C)c(C)c1,"inconclusive: 50.1 µM [inhibitor, partial curve]",–
O=[N+]([O-])c1cccc(S(=O)(=O)c2ccc(N3CCCCC3)c([N+](=O)[O-])c2)c1,"inconclusive: 10 µM [inhibitor, partial curve]",–
COc1ccc(S(=O)(=O)N(C)C[C@H]2Oc3c(NC(=O)Nc4c(C)noc4C)cccc3C(=O)N([C@H](C)CO)C[C@@H]2C)cc1,"inconclusive: 3.16 µM [inhibitor, partial curve, poor fit]",–

Compound,Potency,"activity change, negative = inhibition"
Cc1cc(C)cc(OCC(=O)OC/C(O)=C(\C#N)c2nc3ccccc3[nH]2)c1,"inconclusive: 39.8 µM [inhibitor, single point]",–
O=C(C=Cc1ccccc1)CC(c1ccccc1)N1CCOCC1 (stereo not given),–,inactive: -9.99% [at 11.6 µM]
Cc1cc(C)n2c(SC/C(O)=C(\C#N)c3nc4ccccc4[nH]3)nnc2n1,"inconclusive: 28.2 µM [inhibitor, full curve]",–
Cc1cc(F)ccc1S(=O)(=O)Nc1ccccc1C(=O)NC1CCN(Cc2ccccc2)CC1,"inconclusive: 39.8 µM [inhibitor, full curve, poor fit]",–
Cc1c(C(=O)O)sc2nc(/C=C/c3cccc(O)c3)[nH]c(=O)c12,"inconclusive: 35.5 µM [inhibitor, partial curve]",–
O=C(NC1=CC(=O)c2ccccc2C1=O)c1ccccc1,–,inactive: -14.7%
C=C[C@@H]1c2cc(C)ccc2N(S(=O)(=O)c2ccc(C)cc2)[C@H](c2ccccc2)C1(C#N)C#N,"inconclusive: 100 µM [inhibitor, partial curve]",–
NC(=O)N/N=C/c1c(F)c(F)c(F)c(F)c1F,"inconclusive: 89.1 µM [inhibitor, single point]",–
Cc1ccc(C(=O)NNC(=O)c2ccc(S(=O)(=O)N3CCCCC3)cc2)cc1,active: 35.5 µM,–
O=C(OCc1cc(=O)n2c(n1)sc1ccccc12)c1cccc(O)c1,"inconclusive: 56.2 µM [inhibitor, partial curve, poor fit]",–
COc1ccc(NC(=O)CN(C)C(=O)/C=C/c2cn(-c3ccccc3)nc2-c2cccs2)cc1,"inconclusive: 39.8 µM [inhibitor, single point]",–
O=C(Nc1cc(S(=O)(=O)N2CCOCC2)ccc1N1CCOCC1)c1ccc(Cl)nc1,–,inactive: 3.4%
COc1ccccc1CNC(=O)C(=O)NCC1OCCN1S(=O)(=O)c1ccccc1 (stereo not given),"inconclusive: 89.1 µM [inhibitor, single point]",–
CCN(CC)C(CNS(=O)(=O)c1ccc(Cl)cc1)c1ccccc1 (stereo not given),–,inactive: 13.1%
CCc1ccc(CNC(=O)Cn2nc(-c3ccccc3)ccc2=O)cc1,"inconclusive: 39.8 µM [inhibitor, single point]",–
C=CCOc1ccc(C(c2c(O)nc(SC)[nH]c2=O)c2c(O)nc(SC)[nH]c2=O)cc1,"inconclusive: 25.1 µM [inhibitor, partial curve]",–
COc1cc(/C=C2\SC(=O)N(c3ccc(Cl)cc3)C2=O)cc([N+](=O)[O-])c1O,"inconclusive: 112 µM [inhibitor, partial curve, poor fit]",–
CCOC(=O)C1CCN(C2CCN(C(=O)c3oc4c(F)cccc4c3C)CC2)CC1,"inconclusive: 39.8 µM [inhibitor, partial curve]",–
CN(c1ccccc1)S(=O)(=O)c1cccc(NC(=O)c2ccc(=O)[nH]n2)c1,"inconclusive: 39.8 µM [inhibitor, full curve, poor fit]",–
COC(=O)c1ccc2nc(-c3ccc(F)cc3)c(Cc3ccc(OC)cc3C)n2c1,–,inactive: -13%

# One compound at a time (already shown). Values in the order: Potency	activity change, negative = inhibition
# Cc1cc(C)n2c(SC/C(O)=C(\C#N)c3nc4ccccc4[nH]3)nnc2n1 is listed as inconclusive: 28.2 µM [inhibitor, full curve]	–
# CCN(CC)C(CNS(=O)(=O)c1ccc(Cl)cc1)c1ccccc1 (stereo not given) is listed as –	inactive: 13.1%
# CN(c1ccccc1)S(=O)(=O)c1cccc(NC(=O)c2ccc(=O)[nH]n2)c1 is listed as inconclusive: 39.8 µM [inhibitor, full curve, poor fit]	–
